Patent US6716596B2, “Agents for replacement of NAD+/NADH system in enzymatic reactions” (The Regents of the University of California, priority 2001, dated 2004)
Where a name gives a salt, the structure may show the parent alone.

Experiment: regioselective reduction of biomimics with catalyst precursor (2) and sodium formate, followed by 1H NMR
Conditions: (2) as catalyst precursor, sodium formate as hydride source
Description: The relative rates, seen tabulated in FIG. 1C, were determined by observing disappearance of the pyridinium signals versus an internal standard, [(CH3)4N]OTf (tetramethylammonium triflate), during the first 2 hours, where the relative rate of 1-benzylnicotinamide triflate (1) was set to 1.0. The turnover frequencies were calculated by the formation of mmol of product/mmol of catalyst/hour. The total turnover number in 24 hours was ˜95 for all substrates that gave product. The reactions were conducted in presilylated J. Young NMR tubes and were followed by ^1H NMR.
The electronic effect of differently substituted nicotinamide substrates was determined by their relative rates. The relative rates of these compounds were determined by observing the disappearance of the pyridinium signals compared to interval standard, [(CH3)4N]OTf, during the first 2 hours, where the relative rate of compound (1a) was 1.0.
In a typical reaction, a J. Young NMR tube was charged, biomimic substrates (1a)-(1i) (1.0 mol), 2 (1% mol), and HCO2Na (1.1 mol) used as the hydride source and a Schlenk techniques were conducted to deoxygenate the solid mixture. […]
The given relative rates and turnover frequencies were determined by decreasing integration of the corresponding pyridinium salts measured against an internal standard, (CH3)4N(OTf), during the first 2 h of the reaction. […]

Compound: NC(=O)c1ccc[n+](Cc2ccccc2)c1 [Compound 1a, 1-Benzylnicotinamide, Triflate Salt]
- regiospecificity of reduction to 1,4-dihydro derivative: exclusively
- regiospecificity of reduction to 1,4-dihydro derivative (listed as 1): almost exclusive 1,4-NADH regiospecificity
